PubChem BioAssay AID504793 | Drosophila RNAi Screening Center – 2011

Screen: 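Knock-downs allowing continued mitosis even though DNA is damaged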 (primary screen)
System: Drosophila S2R+ cells
Reagents: long dsRNA against Drosophila genes, about 0.25 µg dsRNA per well
Duration: 4 days of dsRNA, then 4 hours of drug before read-out
Challenge: doxorubicin 0.5 µM for 4 hours to cause double-strand breaks, in cells also given a low, harmless dose of dsRNA against nbs to sensitise the assay
Read-out: 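Per-well count of mitotic cells stained for phospho-histone H3 after doxorubicin exposure, used as mitotic index; counts are raw and not normalised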
Direction: mitotic cells: higher = more cells in mitosis, weaker G2 arrest
Active means: 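a call needs confirmation in secondary tests, with other dsRNAs and a check of mitotic timing without damage, not just a high primary count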
Meaning of the calls: active = confirmed in follow-up tests; inactive = not confirmed
The deposit covers about 23,000 reagents; shown is an unselected part of those that have a named target and a result. Of all reagents, 62 (0.27%) got an active call. 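Calls come from follow-up tests whose scores are not deposited, so confirmed genes may have low counts here; counts are not normalised per plate.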 Raw values are not corrected between plates.

Against Nepl10 (GeneID 36366) [DRSC07212], the values are mitotic cells, replicate 1 = 6; inactive. For lok (GeneID 35288) [DRSC03567], the values are mitotic cells, replicate 1 = 3; inactive. For lok (GeneID 35288) [DRSC25866] the deposit lists mitotic cells, replicate 1 = 10; inactive. Against hb (GeneID 41032) [DRSC16963], the values are mitotic cells, replicate 1 = 8; inactive. Silencing of hb (GeneID 41032) [DRSC27856] gave: mitotic cells, replicate 1 = 7; inactive. After knock-down of Pka-C1 (GeneID 34284) [DRSC03399], the screen gave mitotic cells, replicate 1 = 5; inactive.

After knock-down of Pka-C1 (GeneID 34284) [DRSC23314], the screen gave mitotic cells, replicate 1 = 8; inactive. Pka-C1 (GeneID 34284) [DRSC28268] showed mitotic cells, replicate 1 = 7; inactive. Against hale (GeneID 40183) [DRSC10882] the deposit lists mitotic cells, replicate 1 = 6; inactive. hale (GeneID 40183) [DRSC28772] scored mitotic cells, replicate 1 = 5; inactive. After knock-down of sun (GeneID 44046) [DRSC20140] the results were mitotic cells, replicate 1 = 12; inactive. sun (GeneID 44046) [DRSC26284] showed mitotic cells, replicate 1 = 9; inactive.

Knock-down of CG4830 (GeneID 41477) [DRSC15657] came out at: mitotic cells, replicate 1 = 7; inactive. After knock-down of CG32219 (GeneID 317922) [DRSC09641] the results were mitotic cells, replicate 1 = 8; inactive. narya (GeneID 32932) [DRSC19439] gave mitotic cells, replicate 1 = 8; inactive. Knock-down of CG31125 (GeneID 318599) [DRSC13684] gave: mitotic cells, replicate 1 = 24; inactive. With knock-down of CG31125 (GeneID 318599) [DRSC25124], the record shows mitotic cells, replicate 1 = 6; inactive. CG15594 (GeneID 40768) [DRSC12280] scored mitotic cells, replicate 1 = 4; inactive.

Silencing of CG32026 (GeneID 317829) [DRSC08950] came out at: mitotic cells, replicate 1 = 9; inactive. CG32026 (GeneID 317829) [DRSC27384] showed mitotic cells, replicate 1 = 6; inactive. Silencing of Naa35 (GeneID 37866) [DRSC04447] resulted in: mitotic cells, replicate 1 = 7; inactive. Against Naa35 (GeneID 37866) [DRSC26149], the entry reads mitotic cells, replicate 1 = 3; inactive. Depletion of CG6785 (GeneID 34620) [DRSC02993] resulted in: mitotic cells, replicate 1 = 3; inactive. With knock-down of CG6785 (GeneID 34620) [DRSC25446], the record shows mitotic cells, replicate 1 = 7; inactive.

For DhpD (GeneID 40528) [DRSC12288], the entry reads mitotic cells, replicate 1 = 8; inactive. For Ranbp16 (GeneID 118436) [DRSC20160], the entry reads mitotic cells, replicate 1 = 12; inactive. After knock-down of ND-B14.5A (GeneID 31190) [DRSC18500], the screen gave mitotic cells, replicate 1 = 12; inactive. Depletion of eIF5B (GeneID 44261) [DRSC08429] gave: mitotic cells, replicate 1 = 7; inactive. Silencing of eIF5B (GeneID 44261) [DRSC08710] resulted in: mitotic cells, replicate 1 = 3; inactive. With knock-down of eIF5B (GeneID 44261) [DRSC25022], the screen gave mitotic cells, replicate 1 = 5; inactive.

CG17292 (GeneID 34152) [DRSC02594] scored mitotic cells, replicate 1 = 2; inactive. CG17292 (GeneID 34152) [DRSC27746] gave mitotic cells, replicate 1 = 2; inactive. CG32225 (GeneID 317926) [DRSC09657] gave mitotic cells, replicate 1 = 7; inactive. After knock-down of CG32225 (GeneID 317926) [DRSC26362], the record shows mitotic cells, replicate 1 = 4; inactive. For CG33143 (GeneID 37583) [DRSC04151], the values are mitotic cells, replicate 1 = 6; inactive. With knock-down of CG33143 (GeneID 37583) [DRSC04454] the results were mitotic cells, replicate 1 = 4; inactive.

Knock-down of CG33143 (GeneID 37583) [DRSC27587] gave: mitotic cells, replicate 1 = 4; inactive. After knock-down of Svip (GeneID 317834) [DRSC08982], the screen gave mitotic cells, replicate 1 = 8; inactive. After knock-down of Svip (GeneID 317834) [DRSC28597] the results were mitotic cells, replicate 1 = 2; inactive. Silencing of Cpr92A (GeneID 42333) [DRSC16000] gave: mitotic cells, replicate 1 = 8; inactive. For Cpr92A (GeneID 42333) [DRSC25340], the values are mitotic cells, replicate 1 = 5; inactive. Against MagR (GeneID 32513) [DRSC20092], the values are mitotic cells, replicate 1 = 11; inactive.

CG10151 (GeneID 36639) [DRSC05974] showed mitotic cells, replicate 1 = 10; inactive. With knock-down of CG10151 (GeneID 36639) [DRSC27429], the screen gave mitotic cells, replicate 1 = 6; inactive.

Single entries from the entries so far.
Cpr92A (GeneID 42333) [DRSC25340], Outcome → inactive
Entry for Svip (GeneID 317834) [DRSC08982] under “mitotic cells, replicate 1”: 8
eIF5B (GeneID 44261) [DRSC08710], mitotic cells, replicate 1 = 3
CG17292 (GeneID 34152) [DRSC02594], Outcome: inactive
Under “Outcome”, CG15594 (GeneID 40768) [DRSC12280] reads inactive
Under “Outcome”, CG17292 (GeneID 34152) [DRSC27746] shows inactive
